This note sets out measurements from PMC12592420, “A mismatch in enzyme-redox partnerships underlies divergent cytochrome P450 activities between human hepatocytes and microsomes” (Communications Biology, 2025).

Data set [1] is described as follows: CLint in NADH-supplemented human liver microsomes. The note with it: Fig. 4a,d. The procedure:
(§1) Calculation and scaling of CLint,u was done using the equation below and 45 mg of microsomal protein per gram of liver. HLMCLint,u=ln2/x1/t1/2(min)xmLincubation/mgmicrosomalproteinx45mgmicrosomalprotein/gliverx21gliver/kg/Fuinc
In general terms: Liver microsomes are vesicles of endoplasmic reticulum, rich in cytochrome P450 enzymes.

Data set [2] can be described thus: in vitro. The note with it: human, Caco-2.
A short description of data set [3]: CLint in NADPH-supplemented human liver microsomes. The settings on record: Fig. 4a,d. The procedure: as §1
The nature of data set [4]: in vitro. The note with it: human, hepatocytes. The procedure:
Cryopreserved HH prepared from a mixed-gender pool of twenty donors (product X008000, lot EEO, BIOIVT), ten-donors (product S01205, lot MTJ, BIOIVT), ten donors (product S01205 lot LYB, BIOIVT) were utilised in the experiments. Cryopreserved HH were rapidly thawed in a water bath set at 37 °C and added to Leibovitz media that had been pre-warmed in the water bath. The suspension of cells was mixed gently and centrifuged at 40 × g for 4 min at room temperature. Excess media was removed, and the cells were re-suspended in 5 mL of fresh Leibovitz media. The cells were counted using an automated cell counter (Cellometer).

Data set [5] is described as follows: Intrinsic permeability in Caco-2 cells with efflux inhibited. The note with it: human. For orientation: Caco-2 monolayers are a common model of the intestinal barrier.

In the case of `CN1C(=O)CN=C(c2ccccc2)c2cc(Cl)ccc21` [Diazepam], the microsomal CLint (in general, a measure of how fast metabolising enzymes remove a compound, apart from limits set by blood flow) at 1 µM in data set [1] (pH 7.4, HLM_NADH CLint, 1 µM, single determination) is 3 µL/min/mg; in data set [3] (pH 7.4, HLM_NADPH CLint, 1 µM, single determination), 10.6 µL/min/mg. Also, the CLint scaled – broadly, the rate of metabolic loss divided by the concentration – at 1 µM in data set [1] (pH 7.4, NADH_HLM_scaled_CLint,u) turned out to be 4.09 mL/min/kg; in data set [3] (pH 7.4, NADPH_HLM_scaled_CLint,u), 14.4 mL/min/kg. For the same molecule, the apparent permeability coefficient (Papp) (in general, the rate of passage across a membrane or cell layer, normalised by area and donor concentration) in the data set “in vitro [2]” came out at 34.2 ×10⁻⁶ cm/s. Besides, in the data set “in vitro [4]” (both, HH_CLint), the intrinsic metabolic clearance (hepatocyte CLint) (in general, the rate of metabolic loss divided by the concentration) worked out at 4.62 µL/min/1e6 cells. Also, the CLint scaled in the data set “in vitro [4]” (HH_scaled_CLint,u) turned out to be 16.8 mL/min/kg.

In the case of `NS(=O)(=O)c1cc(C(=O)O)c(NCc2ccco2)cc1Cl` [Furosemide], in data set [5], the Papp at 2 h, 10 µM turned out to be 1.42 ×10⁻⁶ cm/s.
